Laboratory results: PubChem BioAssay AID652259 (Drosophila RNAi Screening Center, 2013)
Aim: 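Knock-downs that push a Wingless-driven reporter up or down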 (primary screen). Cell system: Drosophila clone 8 imaginal disc epithelial cells. Reagent: long dsRNA against Drosophila genes. Treatment: pathway stimulated by co-transfected Wingless expression plasmid. Detection: 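Dual luciferase reads per well after Wingless plasmid stimulation: reporter firefly light and Renilla control light; activity is firefly divided by Renilla, a ratio not deposited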. Scale: firefly reporter light: higher = more Wg reporter light, before normalisation; Renilla control light: higher = more transfected or surviving cells. Hit rule: 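Strong candidates differ from their plate mean by at least two out of four per-plate statistical tests; weak candidates meet just one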. Meaning of the calls: active = candidate regulator (raises or lowers reporter); inactive = not a candidate.
The screen tested about 22,000 reagents; below is a random part of those with a known target gene and a result. Over the whole deposit, 233 (1.1%) were called active. 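Light values are raw, unnormalised plate reads; the ratio scores behind the reporter calls were not deposited.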 Entries without a mark were called inactive. Reagents against one gene are numbered here. No sequences are given here. Not stated in the record: the amount of reagent, the time to read-out, the dose of the treatment.

gene | reagent no. | firefly reporter light, replicate 1 | firefly reporter light, replicate 2 | Renilla control light, replicate 1 | Renilla control light, replicate 2
Mcm10 (Minichromosome maintenance 10) | 1 | 8860 | – | 2921 | –
MED6 (Mediator complex subunit 6) | 1 | 9891 | – | 2181 | –
Octbeta3R (Octopamine beta3 receptor) | 1 | 11236 | – | 3129 | –
Octbeta3R (Octopamine beta3 receptor) | 2 | 19188 | – | 3600 | –
Octbeta3R (Octopamine beta3 receptor) | 3 | 5.54e5 | 6.04e5 | 2.01e5 | 2.43e5
Octbeta3R (Octopamine beta3 receptor) | 4 | 2.97e5 | 2.99e5 | 1.38e5 | 1.32e5
Octbeta3R (Octopamine beta3 receptor) | 5 | 9.20e5 | 8.73e5 | 4.92e5 | 4.68e5
rump (rumpelstiltskin) | 1 | 6579 | – | 1633 | –
wbl (windbeutel) | 1 | 8476 | – | 2353 | –
nis | 1 | 8628 | – | 4640 | –
CG14324 | 1 | 13910 | – | 4160 | –
unc-4 | 1 | 25905 | – | 10186 | –
unc-4 | 2 | 8.01e5 | 8.08e5 | 3.39e5 | 4.03e5
Srp68 (Signal recognition particle 68) | 1 | 2867 | – | 1149 | –
Mip (Myoinhibiting peptide precursor) | 1 | 3848 | – | 837 | –
CG14102 | 1 | 6861 | – | 2497 | –
Rab10 | 1 | 22646 | – | 10930 | –
CG7519 | 1 | 14128 | – | 4154 | –
mthl10 (methuselah-like 10) | 1 | 7600 | – | 2521 | –
mthl10 (methuselah-like 10) | 2 | 10025 | – | 4230 | –
CG8460 | 1 | 9834 | – | 4336 | –
Lcp1Psi (Larval cuticle protein 1 pseudogene) | 1 | 20368 | – | 11219 | –
CG10750 | 1 | 7611 | – | 2652 | –
nyo (nyobe) | 1 | 22810 | – | 13648 | –
nyo (nyobe) | 2 | 22247 | – | 16228 | –
Evi5 (Ecotropic viral integration site 5) | 1 | 16896 | – | 7608 | –
SecCl (Secretory chloride channel) | 1 | 4834 | – | 1931 | –
spen (split ends) | 1 | 7201 | – | 2945 | –
CG7290 | 1 | 11040 | – | 2889 | –
